# According to the supplement of paper PMC12819154, “High-throughput peptide-centric local stability assay extends protein–ligand identification to membrane proteins, tissues and bacteria” (Nature Structural & Molecular Biology, 2025):
# The chains behind the UniProt entries cited, without tags or fusion partners. Where a name states a change or a piece, a line headed by the entry shows the natural chain unless it says otherwise.
# UniProt Q92540: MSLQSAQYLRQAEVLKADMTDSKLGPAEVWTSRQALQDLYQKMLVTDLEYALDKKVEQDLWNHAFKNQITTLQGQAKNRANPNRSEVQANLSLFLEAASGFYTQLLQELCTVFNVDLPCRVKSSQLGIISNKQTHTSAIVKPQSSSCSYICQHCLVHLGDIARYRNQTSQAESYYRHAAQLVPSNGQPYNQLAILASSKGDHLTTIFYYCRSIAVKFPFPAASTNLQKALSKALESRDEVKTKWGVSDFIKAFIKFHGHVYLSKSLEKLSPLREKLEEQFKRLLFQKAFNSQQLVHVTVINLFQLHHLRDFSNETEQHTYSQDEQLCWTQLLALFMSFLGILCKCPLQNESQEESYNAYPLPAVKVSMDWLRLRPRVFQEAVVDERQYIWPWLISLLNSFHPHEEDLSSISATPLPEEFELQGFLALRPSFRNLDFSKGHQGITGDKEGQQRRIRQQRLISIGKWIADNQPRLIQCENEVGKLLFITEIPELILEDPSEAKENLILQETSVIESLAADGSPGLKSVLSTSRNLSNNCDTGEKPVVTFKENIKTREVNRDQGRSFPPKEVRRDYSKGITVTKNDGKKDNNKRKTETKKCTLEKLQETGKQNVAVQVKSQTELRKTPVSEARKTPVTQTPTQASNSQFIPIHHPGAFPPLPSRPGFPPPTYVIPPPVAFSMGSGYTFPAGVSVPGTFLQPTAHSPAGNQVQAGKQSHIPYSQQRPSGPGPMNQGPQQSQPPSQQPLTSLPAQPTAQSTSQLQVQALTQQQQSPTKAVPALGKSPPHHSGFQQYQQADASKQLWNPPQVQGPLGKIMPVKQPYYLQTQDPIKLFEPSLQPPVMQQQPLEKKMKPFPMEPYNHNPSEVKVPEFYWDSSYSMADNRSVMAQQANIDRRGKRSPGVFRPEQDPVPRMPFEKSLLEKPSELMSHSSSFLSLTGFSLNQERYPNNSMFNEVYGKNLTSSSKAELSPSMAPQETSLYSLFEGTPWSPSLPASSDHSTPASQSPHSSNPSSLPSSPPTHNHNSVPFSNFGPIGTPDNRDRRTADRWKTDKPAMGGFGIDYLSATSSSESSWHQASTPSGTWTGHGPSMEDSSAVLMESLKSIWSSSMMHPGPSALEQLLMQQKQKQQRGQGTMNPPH
# UniProt Q8TDI0: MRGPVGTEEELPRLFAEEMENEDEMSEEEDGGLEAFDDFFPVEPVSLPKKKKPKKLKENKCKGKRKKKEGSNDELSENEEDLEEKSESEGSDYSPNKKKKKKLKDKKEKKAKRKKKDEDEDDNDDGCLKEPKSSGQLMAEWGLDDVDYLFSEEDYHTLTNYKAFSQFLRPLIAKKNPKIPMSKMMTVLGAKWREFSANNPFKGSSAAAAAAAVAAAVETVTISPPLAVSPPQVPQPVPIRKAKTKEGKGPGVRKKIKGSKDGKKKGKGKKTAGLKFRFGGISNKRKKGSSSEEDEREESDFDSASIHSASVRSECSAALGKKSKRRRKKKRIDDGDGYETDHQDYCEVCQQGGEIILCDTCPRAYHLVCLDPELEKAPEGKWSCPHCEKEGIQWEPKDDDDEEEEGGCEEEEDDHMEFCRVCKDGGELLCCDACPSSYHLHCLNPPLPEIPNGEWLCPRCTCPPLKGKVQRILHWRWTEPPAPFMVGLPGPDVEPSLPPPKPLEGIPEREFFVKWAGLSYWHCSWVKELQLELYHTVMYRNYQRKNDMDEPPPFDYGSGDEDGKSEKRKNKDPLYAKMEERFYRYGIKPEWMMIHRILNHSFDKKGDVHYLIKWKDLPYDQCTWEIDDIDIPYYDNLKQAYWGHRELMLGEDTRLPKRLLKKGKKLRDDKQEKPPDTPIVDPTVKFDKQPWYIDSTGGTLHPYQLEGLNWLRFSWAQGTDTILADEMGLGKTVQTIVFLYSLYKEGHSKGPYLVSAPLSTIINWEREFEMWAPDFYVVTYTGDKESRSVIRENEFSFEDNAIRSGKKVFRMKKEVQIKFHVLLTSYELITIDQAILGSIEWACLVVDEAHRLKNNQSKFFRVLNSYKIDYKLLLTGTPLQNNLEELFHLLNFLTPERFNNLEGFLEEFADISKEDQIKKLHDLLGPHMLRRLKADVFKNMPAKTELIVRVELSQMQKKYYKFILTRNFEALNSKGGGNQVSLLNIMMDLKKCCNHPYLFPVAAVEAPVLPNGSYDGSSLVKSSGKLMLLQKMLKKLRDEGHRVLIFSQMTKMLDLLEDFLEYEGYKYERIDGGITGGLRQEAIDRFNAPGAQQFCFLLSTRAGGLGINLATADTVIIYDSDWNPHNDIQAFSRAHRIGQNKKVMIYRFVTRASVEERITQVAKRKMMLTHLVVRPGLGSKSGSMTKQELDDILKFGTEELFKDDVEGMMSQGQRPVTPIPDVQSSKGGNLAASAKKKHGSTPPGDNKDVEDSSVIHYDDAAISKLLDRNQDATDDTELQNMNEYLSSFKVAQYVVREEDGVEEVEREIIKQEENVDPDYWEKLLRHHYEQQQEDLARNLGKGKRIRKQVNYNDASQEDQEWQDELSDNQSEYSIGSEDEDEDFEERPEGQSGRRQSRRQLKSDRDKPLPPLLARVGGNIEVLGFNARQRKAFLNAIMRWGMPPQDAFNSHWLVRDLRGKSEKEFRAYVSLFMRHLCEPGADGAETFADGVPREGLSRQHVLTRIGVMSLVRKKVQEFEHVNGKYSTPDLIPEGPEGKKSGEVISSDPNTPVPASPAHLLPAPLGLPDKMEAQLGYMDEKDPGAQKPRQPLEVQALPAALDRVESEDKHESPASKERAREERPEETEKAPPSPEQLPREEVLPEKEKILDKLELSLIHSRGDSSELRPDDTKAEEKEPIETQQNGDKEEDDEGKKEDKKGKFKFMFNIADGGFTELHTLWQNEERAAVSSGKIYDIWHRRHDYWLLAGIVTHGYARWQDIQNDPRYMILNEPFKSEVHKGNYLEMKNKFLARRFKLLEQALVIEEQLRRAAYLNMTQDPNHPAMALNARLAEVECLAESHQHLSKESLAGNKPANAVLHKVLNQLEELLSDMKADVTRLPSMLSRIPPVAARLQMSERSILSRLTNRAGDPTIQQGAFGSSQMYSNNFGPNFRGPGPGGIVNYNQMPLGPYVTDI
# UniProt Q92508: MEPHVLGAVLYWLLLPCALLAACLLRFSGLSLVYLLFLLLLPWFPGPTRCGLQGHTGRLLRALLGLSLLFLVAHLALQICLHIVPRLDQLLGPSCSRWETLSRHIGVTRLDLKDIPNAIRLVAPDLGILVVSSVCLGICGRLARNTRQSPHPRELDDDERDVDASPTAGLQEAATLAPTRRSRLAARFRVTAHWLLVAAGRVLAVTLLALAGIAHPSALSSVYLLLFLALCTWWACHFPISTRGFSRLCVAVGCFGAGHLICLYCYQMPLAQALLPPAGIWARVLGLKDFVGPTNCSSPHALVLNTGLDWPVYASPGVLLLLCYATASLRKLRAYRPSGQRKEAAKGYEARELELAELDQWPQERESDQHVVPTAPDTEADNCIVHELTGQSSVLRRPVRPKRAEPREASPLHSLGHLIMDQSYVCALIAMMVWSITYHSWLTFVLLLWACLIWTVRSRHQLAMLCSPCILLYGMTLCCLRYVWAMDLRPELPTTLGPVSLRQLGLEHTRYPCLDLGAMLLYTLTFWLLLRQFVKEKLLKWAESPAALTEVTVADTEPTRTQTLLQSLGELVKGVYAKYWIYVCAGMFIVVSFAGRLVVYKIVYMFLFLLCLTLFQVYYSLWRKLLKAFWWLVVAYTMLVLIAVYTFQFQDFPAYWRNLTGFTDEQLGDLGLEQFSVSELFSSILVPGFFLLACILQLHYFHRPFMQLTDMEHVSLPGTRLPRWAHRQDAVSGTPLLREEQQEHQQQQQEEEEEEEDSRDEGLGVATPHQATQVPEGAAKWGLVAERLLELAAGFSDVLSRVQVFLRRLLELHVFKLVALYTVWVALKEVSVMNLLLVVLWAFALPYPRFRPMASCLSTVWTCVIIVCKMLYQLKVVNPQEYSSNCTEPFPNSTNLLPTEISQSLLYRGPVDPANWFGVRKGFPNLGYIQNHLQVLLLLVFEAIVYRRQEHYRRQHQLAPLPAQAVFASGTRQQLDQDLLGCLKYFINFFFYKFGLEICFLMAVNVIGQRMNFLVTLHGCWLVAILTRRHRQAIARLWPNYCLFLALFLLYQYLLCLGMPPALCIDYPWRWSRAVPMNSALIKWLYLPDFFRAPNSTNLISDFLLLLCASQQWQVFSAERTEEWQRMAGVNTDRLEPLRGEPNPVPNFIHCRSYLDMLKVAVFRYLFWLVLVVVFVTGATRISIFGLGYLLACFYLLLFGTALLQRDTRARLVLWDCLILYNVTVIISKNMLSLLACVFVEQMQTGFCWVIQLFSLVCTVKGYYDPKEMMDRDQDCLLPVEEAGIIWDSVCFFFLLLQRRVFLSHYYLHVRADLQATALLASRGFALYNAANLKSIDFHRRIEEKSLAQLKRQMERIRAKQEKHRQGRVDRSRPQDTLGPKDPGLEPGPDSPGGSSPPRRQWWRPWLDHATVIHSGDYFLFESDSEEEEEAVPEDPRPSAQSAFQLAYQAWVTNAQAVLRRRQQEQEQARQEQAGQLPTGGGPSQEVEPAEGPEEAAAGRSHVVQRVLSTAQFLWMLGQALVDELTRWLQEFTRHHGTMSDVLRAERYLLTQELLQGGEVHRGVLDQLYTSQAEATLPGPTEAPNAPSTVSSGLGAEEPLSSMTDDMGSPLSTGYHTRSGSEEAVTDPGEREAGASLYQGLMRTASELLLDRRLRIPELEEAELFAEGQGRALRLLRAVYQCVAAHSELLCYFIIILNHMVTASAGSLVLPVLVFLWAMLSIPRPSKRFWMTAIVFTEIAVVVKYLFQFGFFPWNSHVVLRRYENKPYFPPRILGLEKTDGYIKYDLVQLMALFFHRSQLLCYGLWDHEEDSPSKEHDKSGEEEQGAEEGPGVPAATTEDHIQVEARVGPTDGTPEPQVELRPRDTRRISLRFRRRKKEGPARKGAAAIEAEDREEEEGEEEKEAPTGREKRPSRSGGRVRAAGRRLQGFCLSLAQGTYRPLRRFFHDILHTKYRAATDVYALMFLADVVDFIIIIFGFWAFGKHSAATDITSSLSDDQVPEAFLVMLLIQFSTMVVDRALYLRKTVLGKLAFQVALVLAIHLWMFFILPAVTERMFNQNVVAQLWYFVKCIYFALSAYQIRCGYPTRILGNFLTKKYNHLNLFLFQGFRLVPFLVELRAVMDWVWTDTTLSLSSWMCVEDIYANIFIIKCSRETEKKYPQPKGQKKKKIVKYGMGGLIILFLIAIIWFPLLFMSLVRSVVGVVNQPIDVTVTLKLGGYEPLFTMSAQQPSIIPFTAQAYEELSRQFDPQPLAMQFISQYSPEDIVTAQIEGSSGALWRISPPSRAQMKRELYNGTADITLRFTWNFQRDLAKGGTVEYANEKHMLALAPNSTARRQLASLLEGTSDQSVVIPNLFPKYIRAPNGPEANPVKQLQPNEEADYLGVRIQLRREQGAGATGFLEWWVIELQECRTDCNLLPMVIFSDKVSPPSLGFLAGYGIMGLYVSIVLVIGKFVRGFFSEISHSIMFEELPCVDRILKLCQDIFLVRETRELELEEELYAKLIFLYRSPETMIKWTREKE
# UniProt Q8TD19: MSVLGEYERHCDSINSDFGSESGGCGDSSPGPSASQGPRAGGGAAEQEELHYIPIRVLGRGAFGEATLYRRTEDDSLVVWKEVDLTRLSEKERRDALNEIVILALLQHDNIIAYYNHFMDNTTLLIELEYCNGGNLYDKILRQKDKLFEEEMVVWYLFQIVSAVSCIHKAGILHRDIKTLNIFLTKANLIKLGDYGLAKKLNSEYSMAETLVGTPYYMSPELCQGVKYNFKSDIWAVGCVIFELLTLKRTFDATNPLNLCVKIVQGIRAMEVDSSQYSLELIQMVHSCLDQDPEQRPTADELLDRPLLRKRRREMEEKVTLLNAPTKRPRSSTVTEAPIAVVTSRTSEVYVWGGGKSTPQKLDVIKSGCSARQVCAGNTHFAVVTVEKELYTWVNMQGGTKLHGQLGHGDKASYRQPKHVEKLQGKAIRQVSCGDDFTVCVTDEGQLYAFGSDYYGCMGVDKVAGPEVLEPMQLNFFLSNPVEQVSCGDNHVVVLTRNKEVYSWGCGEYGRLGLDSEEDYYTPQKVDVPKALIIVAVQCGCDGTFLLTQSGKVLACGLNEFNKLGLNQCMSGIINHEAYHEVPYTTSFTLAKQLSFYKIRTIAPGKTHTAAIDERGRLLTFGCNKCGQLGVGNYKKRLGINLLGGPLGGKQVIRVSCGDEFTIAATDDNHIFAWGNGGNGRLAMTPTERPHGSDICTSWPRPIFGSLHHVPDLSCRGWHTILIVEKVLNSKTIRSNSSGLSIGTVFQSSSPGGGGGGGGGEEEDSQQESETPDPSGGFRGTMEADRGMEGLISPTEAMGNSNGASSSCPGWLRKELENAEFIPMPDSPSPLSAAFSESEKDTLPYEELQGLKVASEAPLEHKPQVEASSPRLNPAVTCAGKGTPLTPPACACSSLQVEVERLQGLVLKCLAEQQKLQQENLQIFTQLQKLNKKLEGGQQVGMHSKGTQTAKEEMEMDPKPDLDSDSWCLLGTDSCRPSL
# The other results are listed elsewhere or left out. Most values lie at the level of the controls, where differences are scatter.
# Compound: Cc1nc(Nc2ncc(C(=O)Nc3c(C)cccc3Cl)s2)cc(N2CCN(CCO)CC2)n1 [dasatinib]
# Assay: log2 fold change of tryptic peptide abundance, ligand vs vehicle (limited proteolysis) (log2 ratio); higher = more trypsin-susceptible (destabilized)
# Settings: ligand concentration: 5 uM; sample: K562 cleared lysate
row,Target,log2 fold change
1,"ZNF384 (peptide sequence: MKDQLLPEK, peptide start residue: 32) (UniProt Q8TF68)",-0.00927
2,"CKAP2 (peptide sequence: PASLSNDKLMEK, peptide start residue: 326) (UniProt Q8WWK9)",0.431
3,"SEC14L1 (peptide sequence: GKIPKDEHILR, peptide start residue: 272) (UniProt Q92503)",-0.205
4,"IPO4 (peptide sequence: ILCCLTFLVK, peptide start residue: 267) (UniProt Q8TEX9)",-0.452
5,"RNASEH2C (peptide sequence: FIGATANFSR, peptide start residue: 119) (UniProt Q8TDP1)",0.136
6,"WASF1 (peptide sequence: SVLLEAIRK, peptide start residue: 499) (UniProt Q92558)",0.106
7,"GOLGA5 (peptide sequence: TPVEASHPVENASVPR, peptide start residue: 90) (UniProt Q8TBA6)",-0.677
8,"UniProt Q8WVT3 (peptide sequence: YFQDVEK, peptide start residue: 602)",-0.151
9,"UniProt Q92572 (peptide sequence: VPNLPSFK, peptide start residue: 186)",0.229
10,"HDAC7 (peptide sequence: LSGSGLHWPLSR, peptide start residue: 344) (UniProt Q8WUI4)",-0.109
11,"UniProt Q8TDN6 (peptide sequence: LFVINEVCEMKNCNK, peptide start residue: 100)",0.409
12,"EDEM1 (peptide sequence: YMFTTEGHIVSVDEHLR, peptide start residue: 575) (UniProt Q92611)",0.409
13,"RHBDD1 (peptide sequence: ALQASLWDR, peptide start residue: 277) (UniProt Q8TEB9)",-0.458
14,"PPP1R14C (peptide sequence: KLSPPQKK, peptide start residue: 156) (UniProt Q8TAE6)",-0.28
15,"PIBF1 (peptide sequence: QNMELSVR, peptide start residue: 326) (UniProt Q8WXW3)",0.403
16,"UniProt Q8WXB1 (peptide sequence: KVALEFLK, peptide start residue: 96)",-0.187
17,"ASAP3 (peptide sequence: NSGCGYSIHQHQGNK, peptide start residue: 285) (UniProt Q8TDY4)",-0.787
18,"SLC35B2 (peptide sequence: ASDEVPLAPR, peptide start residue: 88) (UniProt Q8TB61)",0.265
19,"LPIN2 (peptide sequence: SDSELEVKPAESLLR, peptide start residue: 243) (UniProt Q92539)",-0.831

# Shown as tab-separated lines: part of the list above
row	Target	log2 fold change
1	ZNF384 (peptide sequence: MKDQLLPEK, peptide start residue: 32) (UniProt Q8TF68)	-0.00927
6	WASF1 (peptide sequence: SVLLEAIRK, peptide start residue: 499) (UniProt Q92558)	0.106

# Following part.

row,Target,log2 fold change
1,"PHIP (peptide sequence: GSISSTSEVHSPPNVGLR, peptide start residue: 673) (UniProt Q8WWQ0)",0.561
2,"UniProt Q8TBX8 (peptide sequence: NPPSESEGSDGR, peptide start residue: 129)",-0.853
3,"SMG7 (peptide sequence: SVMAQQANIDRR, peptide start residue: 882) (UniProt Q92540)",-0.149
4,"CHD5 (peptide sequence: ESLAGNKPANAVLHK, peptide start residue: 1849) (UniProt Q8TDI0)",0.0194
5,"GBF1 (peptide sequence: AVGMASDIPGLHLPGGGRLPPEHGK, peptide start residue: 634) (UniProt Q92538)",-0.309
6,"PIEZO1 (peptide sequence: QDAVSGTPLLR, peptide start residue: 728) (UniProt Q92508)",0.117
7,"NEK9 (peptide sequence: LHGQLGHGDK, peptide start residue: 402) (UniProt Q8TD19)",-0.552
8,"GABPB2 (peptide sequence: VTGSAGTTEPHTR, peptide start residue: 428) (UniProt Q8TAK5)",-0.13
9,"SCFD1 (peptide sequence: LIDLHTNVATAVLEHIK, peptide start residue: 398) (UniProt Q8WVM8)",0.411
10,"MIPOL1 (peptide sequence: ANMELQLQHAR, peptide start residue: 399) (UniProt Q8TD10)",-1.03
11,"UniProt Q8TF61 (peptide sequence: EKEELEER, peptide start residue: 261)",0.636
12,"FIG4 (peptide sequence: NSQQPCSRCSDGVIK, peptide start residue: 834) (UniProt Q92562)",-0.209
13,"BBX (peptide sequence: FNSLPQYSPVTFDRK, peptide start residue: 697) (UniProt Q8WY36)",0.426
14,"GATAD2B (peptide sequence: TLQGHSVIR, peptide start residue: 241) (UniProt Q8WXI9)",-0.121
15,"EXOC6 (peptide sequence: STNLLLTR, peptide start residue: 520) (UniProt Q8TAG9)",-0.186
16,"NDRG1 (peptide sequence: SHTSEGTR, peptide start residue: 344) (UniProt Q92597)",0.283
17,"PUM2 (peptide sequence: ESLSTSSDLYK, peptide start residue: 586) (UniProt Q8TB72)",-0.204
18,"MITD1 (peptide sequence: QDPQSTAAATVLKR, peptide start residue: 8) (UniProt Q8WV92)",-0.155
19,"HSD17B8 (peptide sequence: VGNVGQTNYAASK, peptide start residue: 161) (UniProt Q92506)",-0.0771
